Values quoted from earlier work, collected in patent publication US20250082766A1, “TREATMENT OF BRAIN TUMORS BY TARGETING THE CHOLESTEROL PATHWAY IN ASTROCYES” (Ramot at Tel-Aviv University Ltd., priority 2022, published 2025).
For at least one compound, name, drawing or mass did not settle the structure.

Tested on: glioma
Settings: experimental glioma mouse models; cited from earlier work

In the case of `CN(C)c1ccc(O)c2c1C[C@H]1C[C@H]3[C@H](N(C)C)C(O)=C(C(N)=O)C(=O)[C@@]3(O)C(O)=C1C2=O` [minocycline], the glioma expansion is listed as “reduces glioma expansion”.
